Experimental data from doi:10.1101/2024.03.26.586676.
Weaker means in comparison with the reference protein, sequence or condition of that experiment. For some of these results: Where a protein sequence is shown, tags need not be part of it. For some of these results: Construct, isoform or probe ends are uncertain for at least one entry.

Chains of the proteins cited; added tags and fusions are not shown. Residues count along the entry.
UniProt P48809, 1-88: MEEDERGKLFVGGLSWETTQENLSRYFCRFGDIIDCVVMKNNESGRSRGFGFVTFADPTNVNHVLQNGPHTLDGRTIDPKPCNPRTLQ

Experiments:
[1] = target: Hrp48-RRM1 (Drosophila melanogaster) (UniProt P48809); test: NMR; conditions: fast exchange, residues 1-88
[2] = target: T1, Hrp48-RRM2 (Drosophila melanogaster) (UniProt P48809); test: NMR; conditions: weak; residues 89-173
T1 sequence (looked up): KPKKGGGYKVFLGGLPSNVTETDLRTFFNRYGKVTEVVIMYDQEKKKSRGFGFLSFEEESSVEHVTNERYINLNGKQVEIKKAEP

[3] = target: Hrp48-RRM12 (Drosophila melanogaster) (UniProt P48809); test: NMR; conditions: strong interaction not confirmed; residues 1-173
[4] = target: Hrp48-RRM12 (Drosophila melanogaster) (UniProt P48809); test: ITC; conditions: residues 1-173

**Q.** Does AAGAAC [6-mer-4] bind [1]?
**A.** binds more weakly

**Q.** Does AACCUA [6-mer-1] bind [1]?
**A.** binds more weakly

**Q.** Does UUUUUU [6-mer-5 (U6)] bind ([1]; weak affinity)?
**A.** binds more weakly

**Q.** Does UUUUUU [6-mer-5 (U6)] bind [2]?
**A.** binds more weakly

**Q.** What does the source list for AACCUAGG [Region 5]?
**A.** binding result [3]: binds more weakly; binding result ([4]; strong interaction not confirmed): binds more weakly

**Q.** Does UAGGCCUAAG [10-mer-CC] bind ([4]; fit not feasible)?
**A.** binds more weakly
